# PubChem BioAssay AID1259254, NCATS | 2017
# Purpose: 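Gene knock-downs that lead to re-replication, shown by excess G2 DNA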 (primary screen)
# Cell system: human HCT116 colorectal cancer cells
# Reagent: single siRNA against human genes
# Duration: 3 days
# Read-out: 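Nuclei stained with Hoechst and imaged; cell-cycle phase assigned by DNA content; G2 share scaled per plate, non-targeting siRNA 0%, GMNN siRNA 100%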
# Scale: G2 robust z-score and G2 cells, % of GMNN control: higher = more G2 cells, more excess DNA replication; raw share of cells in G2: higher = larger share of cells with G2 DNA content
# Active means: 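Active siRNAs have a G2 robust z of 5 or more median absolute deviations over the median, which in these data means about 38% or higher of GMNN control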
# In all, the deposit lists about 59,000 reagents; this is an unselected part. About 1,550 of all reagents (2.6%) were called active. 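G2 share is only a proxy for re-replication; each gene was hit by three separate siRNAs, and active genes were retested.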 Raw values are not corrected between plates. Reagents against one gene are numbered here. Not given: the amount of reagent.
gene knocked down,reagent,G2 robust z-score,"G2 cells, % of GMNN control",raw share of cells in G2 (%),call
SPRED1 (GeneID 161742),1,-0.316,0.743,6.31,inactive
SPRED1 (GeneID 161742),2,-0.806,-2.7,3.71,inactive
SPRED1 (GeneID 161742),3,-0.997,-4.05,3,inactive
OPA3 (GeneID 80207),1,0.301,5.08,6.53,inactive
OPA3 (GeneID 80207),2,5.68,42.9,14.1,active
OPA3 (GeneID 80207),3,3.4,26.9,15.6,inactive
STEAP3 (GeneID 55240),1,1.19,11.3,8.88,inactive
STEAP3 (GeneID 55240),2,-0.548,-0.888,3.77,inactive
STEAP3 (GeneID 55240),3,-0.924,-3.53,2.01,inactive
KRTAP5-11 (GeneID 440051),1,-0.646,-1.58,2.89,inactive
KRTAP5-11 (GeneID 440051),2,0.946,9.62,8.78,inactive
KRTAP5-11 (GeneID 440051),3,-0.546,-0.877,3.49,inactive
HAND2 (GeneID 9464),1,0.196,4.34,6.85,inactive
HAND2 (GeneID 9464),2,1.59,14.1,8.02,inactive
HAND2 (GeneID 9464),3,1.09,10.6,9.06,inactive
AARS2 (GeneID 57505),1,0.219,4.51,7.51,inactive
AARS2 (GeneID 57505),2,-0.704,-1.99,3.64,inactive
AARS2 (GeneID 57505),3,-0.575,-1.08,3.83,inactive
KBTBD2 (GeneID 25948),1,0.479,6.34,6.8,inactive
KBTBD2 (GeneID 25948),2,0.265,4.83,6.03,inactive
KBTBD2 (GeneID 25948),3,-0.445,-0.162,3.24,inactive
CD8B (GeneID 926),1,0.456,6.18,7.17,inactive
CD8B (GeneID 926),2,0.13,3.88,5.43,inactive
CD8B (GeneID 926),3,0.602,7.2,7.62,inactive
NKX2-4 (GeneID 644524),1,-0.394,0.197,3.71,inactive
NKX2-4 (GeneID 644524),2,-1,-4.07,1.81,inactive
NKX2-4 (GeneID 644524),3,0.0456,3.29,4.1,inactive
LRRC37A3 (GeneID 374819),1,0.777,8.43,6.88,inactive
LRRC37A3 (GeneID 374819),2,2.55,20.9,12.4,inactive
LRRC37A3 (GeneID 374819),3,-0.873,-3.18,2.91,inactive

Entries above whose target name starts with N or n (3):
gene knocked down,reagent,G2 robust z-score,"G2 cells, % of GMNN control",raw share of cells in G2 (%),call
NKX2-4 (GeneID 644524),1,-0.394,0.197,3.71,inactive
NKX2-4 (GeneID 644524),2,-1,-4.07,1.81,inactive
NKX2-4 (GeneID 644524),3,0.0456,3.29,4.1,inactive

Next reagents:
gene knocked down,reagent,G2 robust z-score,"G2 cells, % of GMNN control",raw share of cells in G2 (%),call
MAGEB17 (GeneID 645864),1,1.48,13.4,8.82,inactive
MAGEB17 (GeneID 645864),2,3.28,26,12.9,inactive
MAGEB17 (GeneID 645864),3,0.904,9.33,6.01,inactive
TAF1D (GeneID 79101),1,1.33,12.3,9.95,inactive
TAF1D (GeneID 79101),2,-0.533,-0.781,4.26,inactive
TAF1D (GeneID 79101),3,1,10,5.34,inactive
VAT1 (GeneID 10493),1,0.55,6.84,9.17,inactive
VAT1 (GeneID 10493),2,-0.748,-2.29,3.1,inactive
VAT1 (GeneID 10493),3,0.528,6.68,8.6,inactive
PARP8 (GeneID 79668),1,-0.484,-0.438,4.26,inactive
PARP8 (GeneID 79668),2,-0.103,2.25,5.29,inactive
PARP8 (GeneID 79668),3,-0.461,-0.277,2.3,inactive
ABCG5 (GeneID 64240),1,-0.896,-3.33,4.27,inactive
ABCG5 (GeneID 64240),2,-0.956,-3.76,3.02,inactive
ABCG5 (GeneID 64240),3,0.693,7.84,7.07,inactive
H2BC9 (GeneID 8345),1,1.62,14.4,11.5,inactive
H2BC9 (GeneID 8345),2,-1.11,-4.84,1.98,inactive
H2BC9 (GeneID 8345),3,0.09,3.6,4.62,inactive
